In this assay the test system is B6C3F1 mice, B16 melanoma ip, median survival T/C. Kind of assay: NCI In Vivo Anticancer Drug Screen. Data for tumor model B16 Melanoma (intraperitoneal) in B6C3F1 mice. The conditions noted are these: T/C endpoint: median survival time, schedule: Q01DX009 (ip), higher T/C = longer survival. In a few lines: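 Mice bearing transplanted tumor were dosed with compound or vehicle, and survival was recorded. Activity is expressed as the treated-group measurement (T) divided by the vehicle control measurement (C).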

[1] abbreviates: dose: 400.0 mg/kg/injection, vehicle: saline with Tween-80.
Setting [2] is: dose: 25.0 mg/kg/injection, vehicle: saline with Tween-80.
Setting [3] is: dose: 400.0 mg/kg/injection, vehicle: Klucel (hydroxypropylcellulose) (HPC).
Setting [4] is: dose: 4.0 mg/kg/injection, vehicle: water.
The mark [5] stands for this setting: dose: 100.0 mg/kg/injection, vehicle: saline with Tween-80.
Setting [6] is: dose: 200.0 mg/kg/injection, vehicle: saline.
[7] abbreviates: dose: 200.0 mg/kg/injection, vehicle: saline with Tween-80.
Setting [8] is: dose: 0.5 mg/kg/injection, vehicle: Klucel (hydroxypropylcellulose) (HPC).

The list shows only some results of the screen, not a fair sample: it is rich in T/C values a quarter to a half above the control, in often repeated tests (any T/C) and in doses without a T/C. Other doses and runs of a compound stand elsewhere. T/C gives the treated animals as a percentage of the vehicle group. Some doses have a count of surviving animals in place of a T/C: the source holds a T/C of zero for them, seemingly a mark for toxic or unscored doses. Some survivor counts are full or nearly so, which does not show that the dose was tolerated: the source hardly ever lists a survival T/C far under the control, and the zero likely stands for such cases as well. Survivors were counted at the toxicity check, usually on the fifth day, unless a day is given; later deaths do not show. Schedule codes are those of the source, taken here to give the interval after Q, in days (D) or hours (H), and the number of doses after X. Some entries hold several experiments; their values stand side by side, smallest first. Some structures stand for samples that the source files as different forms (salt, stereo form or complex); doses refer to the form tested. Where survival is the endpoint, this PubChem deposit counts one and a half times the control or more as active, and values a quarter to a half above the control carry no call in these data; other NCI protocols may use other cut-offs. Some T/C values are followed by the survivors on the day toxicity was checked, most often the fifth; where none is given, no animal had died by that day. Counts like (3×) say how often a value occurs here.

As to `O=C(N/N=C\c1cc(Br)cc(Br)c1O)N/N=C/c1cc(Br)cc(Br)c1O`, the T/C by setting is: (dose: 12.5 mg/kg/injection, vehicle: saline with Tween-80, evaluated on day 45) 104 % of control; (dose: 12.5 mg/kg/injection, vehicle: saline with Tween-80, evaluated on day 60) 104, 107, 110, 111 % of control; (dose: 25.0 mg/kg/injection, vehicle: saline with Tween-80, evaluated on day 45) 101 % of control; (dose: 25.0 mg/kg/injection, vehicle: saline with Tween-80, evaluated on day 60) 101, 106, 107, 117 % of control; (dose: 50.0 mg/kg/injection, vehicle: saline with Tween-80, evaluated on day 45) 114 % of control; (dose: 50.0 mg/kg/injection, vehicle: saline with Tween-80, evaluated on day 60) 109, 118, 119, 124 % of control. The T/C is, setting by setting: (dose: 100.0 mg/kg/injection, vehicle: saline with Tween-80, evaluated on day 45) 114 % of control; (dose: 100.0 mg/kg/injection, vehicle: saline with Tween-80, evaluated on day 60) 121 (2×), 128, 144 % of control; (dose: 200.0 mg/kg/injection, vehicle: saline with Tween-80, evaluated on day 45) 129 % of control; (dose: 200.0 mg/kg/injection, vehicle: saline with Tween-80, evaluated on day 60) 141, 152, 154 % of control (2×); (dose: 400.0 mg/kg/injection, vehicle: saline with Tween-80, evaluated on day 45) 147 % of control; (dose: 400.0 mg/kg/injection, vehicle: saline with Tween-80, evaluated on day 60) 101 and 151 % of control. Also, the survivor count under setting [1] was 9 of 10 and 10 of 10.
For `Nc1ccc(S(=O)(=O)c2ccc(N)cc2)cc1`, the survivor count runs as follows: under setting [2], 10 of 10; (dose: 200.0 mg/kg/injection, vehicle: Klucel (hydroxypropylcellulose) (HPC)) 5 of 10; under setting [3], 0 of 10.
Turning to `COC(=O)Nc1nc2ccc(SC)cc2c(=O)[nH]1`, the survivor count is, setting by setting: (dose: 100.0 mg/kg/injection, vehicle: Klucel (hydroxypropylcellulose) (HPC)) 10 of 10; under setting [3], 10 of 10.
As for `CC(C)(O)/C=C/C(=O)[C@](C)(O)[C@H]1[C@H](O)C[C@@]2(C)[C@@H]3CC=C4[C@@H](C=C(O)C(=O)C4(C)C)[C@]3(C)C(=O)C[C@]12C`, the survivor count (dose: 2.0 mg/kg/injection, vehicle: water) is reported as 0 of 10 and the survivor count under setting [4] was 0 of 10.
On to `C=CCSc1ncnc2c1ncn2C1OC(CO)C(O)C1O` (stereo not given), for which the survivor count (dose: 300.0 mg/kg/injection, vehicle: saline with Tween-80) is listed as 10 of 10.
On to `c1ccc2c(c1)-c1ccccc1C1NC21` (stereo not given), for which the survivor count runs as follows: under setting [2], 10 of 10; (dose: 50.0 mg/kg/injection, vehicle: saline with Tween-80) 9 of 10; under setting [5], 0 of 10.
As to `OCC1(CO)COC2(CCCCC2)N1`, under setting [6], the T/C was 134 % of control.
`CC12C(=O)C=CCC1=CCC1C2CCC2(O)C(=O)OC3(C)C4CC5(C)C(COC16OC23C5C6=O)C(=O)O4` (stereo not given): the survivor count under setting [3] is listed as 2 of 10.
For the molecule `CN=S(=O)(OCCCCCOS(=O)(=NC)c1ccc(C)cc1)c1ccc(C)cc1` (stereo not given), the survivor count is, setting by setting: under setting [7], 1 of 10; under setting [1], 1 of 10.
Take `C[CH2][Sn]([Cl])([CH2]C)[c]1cc[c]([Sn]([Cl])([CH2]C)[CH2]C)cc1`: the T/C reads like this: (dose: 0.06 mg/kg/injection, vehicle: Klucel (hydroxypropylcellulose) (HPC)) 106, 107 [9 of 10 alive], 108, 117 % of control; (dose: 0.12 mg/kg/injection, vehicle: Klucel (hydroxypropylcellulose) (HPC)) 102 [9 of 10 alive], 111, 113, 116 % of control; (dose: 0.25 mg/kg/injection, vehicle: Klucel (hydroxypropylcellulose) (HPC)) 104, 119, 126, 131 % of control; under setting [8], 109 % of control. The survivor count by setting is: under setting [8], 4 of 10, 7 of 10, 8 of 10; (dose: 1.0 mg/kg/injection, vehicle: Klucel (hydroxypropylcellulose) (HPC)) 0 of 10, 1 of 10, 2 of 10, 5 of 10.
As to `COc1ccc(/C(C#N)=C2\OC(=O)c3ccccc32)cc1OC`, the survivor count reads like this: under setting [5], 10 of 10; under setting [1], 10 of 10.
For `CC[n+]1c(-c2ccccc2)c2cc(N)ccc2c2ccc(N)cc21`, the T/C by setting is: (dose: 1.5 mg/kg/injection, vehicle: water) 125 % of control; (dose: 6.0 mg/kg/injection, vehicle: water) 128 % of control; (dose: 12.0 mg/kg/injection, vehicle: water) 139 % of control. Further, the survivor count (dose: 24.0 mg/kg/injection, vehicle: water) is recorded as 10 of 10.
As for `O=C(NC(CO)C(=O)O)OCc1ccccc1` (stereo not given), the survivor count is, setting by setting: under setting [7], 10 of 10; under setting [1], 10 of 10.
Regarding `NCCc1ccc(O)c(O)c1`, the T/C reads like this: (dose: 600.0 mg/kg/injection, vehicle: saline) 137 % of control; (dose: 1200.0 mg/kg/injection, vehicle: saline) 127 % of control. Also, the survivor count (dose: 1600.0 mg/kg/injection, vehicle: saline) is on record as 0 of 10.
As for `O=S(=O)(O)c1cc(N=C=S)ccc1/C=C/c1ccc(N=C=S)cc1S(=O)(=O)O`, under setting [6], the survivor count was 4 of 10.
For the molecule `Cc1c2ccnc(C(N)=O)c2c(C)c2c1[nH]c1ccccc12`, the survivor count is, setting by setting: (dose: 800.0 mg/kg/injection, vehicle: distilled water + Tween-80) 10 of 10; (dose: 1200.0 mg/kg/injection, vehicle: distilled water + Tween-80) 9 of 10; (dose: 1600.0 mg/kg/injection, vehicle: distilled water + Tween-80) 0 of 10.
For the molecule `O=C(O)c1cc(C(=O)O)c(C(=O)O)cc1C(=O)O.[NH2-].[NH2-].[NH2-].[NH2-].[Pt+2].[Pt+2]`, the T/C under setting [4] was 134 % of control.
With `Nc1nc([Se]c2nc(N)nc3c2ncn3C2OC(CO)C(O)C2O)c2ncn(C3OC(CO)C(O)C3O)c2n1` (stereo not given), the survivor count (dose: 400.0 mg/kg/injection, vehicle: distilled water + Tween-80) is 3 of 10.
With `C=C1C(=O)OC2/C=C(\CO)C(OC(C)=O)CC(O)/C(C)=C/C(OC(=O)C(C)CC)C12` (stereo not given), under “dose: 0.19 mg/kg/injection, vehicle: Klucel (hydroxypropylcellulose) (HPC)”, the T/C is 130 % of control.
As to `CCC1CC2CN(CCc3c([nH]c4ccccc34)C(C(=O)OC)(c3cc4c(cc3OC)N(C)C3C(O)(C(=O)OC)C(OC(C)=O)C5(CC)C=CCN6CCC43C65)C2)C1` (stereo not given), the T/C was 143 % of control (dose: 0.25 mg/kg/injection, vehicle: saline); 143 % of control (dose: 0.25 mg/kg/injection, vehicle: suspension in saline); 148 % of control (dose: 0.5 mg/kg/injection, vehicle: suspension in saline); 138 % of control (dose: 1.0 mg/kg/injection, vehicle: suspension in saline).
For the molecule `COc1cc([C@@H]2c3cc4c(cc3[C@H](OC3OC5COC(c6ccccc6)OC5C(O)C3O)[C@H]3COC(=O)[C@H]23)OCO4)cc(OC)c1OC` (stereo not given in full), the T/C (dose: 12.5 mg/kg/injection, vehicle: saline with Tween-80) is 137 and 143 % of control; the T/C under setting [2] was 146 % of control. Besides, the survivor count is given as 10 of 10 under setting [5] and 9 of 10 under setting [7].

These data come from PubChem BioAssay AID200 (DTP/NCI, 2004).
